According to article PMC4161973:
No constants are given. Whether binding was seen depends on the method and setting. Binding seen in cells or lysates may run through a third protein. Where a sequence is shown, tags or fusion partners need not be part of it.

Assays:
[1] = biological target: T1, GST-tagged Nmd5 (S. cerevisiae) (UniProt P46970); assay: pull-down; GST-importins immobilised on Glutathione Sepharose, incubated with purified 3.4 µM Tsr2 or 4 µM Tsr2:eS26 in PBSKMT with competing E. coli lysates for 1 hr at 4°C; Coomassie Blue staining or Western; both purified
T1 sequence: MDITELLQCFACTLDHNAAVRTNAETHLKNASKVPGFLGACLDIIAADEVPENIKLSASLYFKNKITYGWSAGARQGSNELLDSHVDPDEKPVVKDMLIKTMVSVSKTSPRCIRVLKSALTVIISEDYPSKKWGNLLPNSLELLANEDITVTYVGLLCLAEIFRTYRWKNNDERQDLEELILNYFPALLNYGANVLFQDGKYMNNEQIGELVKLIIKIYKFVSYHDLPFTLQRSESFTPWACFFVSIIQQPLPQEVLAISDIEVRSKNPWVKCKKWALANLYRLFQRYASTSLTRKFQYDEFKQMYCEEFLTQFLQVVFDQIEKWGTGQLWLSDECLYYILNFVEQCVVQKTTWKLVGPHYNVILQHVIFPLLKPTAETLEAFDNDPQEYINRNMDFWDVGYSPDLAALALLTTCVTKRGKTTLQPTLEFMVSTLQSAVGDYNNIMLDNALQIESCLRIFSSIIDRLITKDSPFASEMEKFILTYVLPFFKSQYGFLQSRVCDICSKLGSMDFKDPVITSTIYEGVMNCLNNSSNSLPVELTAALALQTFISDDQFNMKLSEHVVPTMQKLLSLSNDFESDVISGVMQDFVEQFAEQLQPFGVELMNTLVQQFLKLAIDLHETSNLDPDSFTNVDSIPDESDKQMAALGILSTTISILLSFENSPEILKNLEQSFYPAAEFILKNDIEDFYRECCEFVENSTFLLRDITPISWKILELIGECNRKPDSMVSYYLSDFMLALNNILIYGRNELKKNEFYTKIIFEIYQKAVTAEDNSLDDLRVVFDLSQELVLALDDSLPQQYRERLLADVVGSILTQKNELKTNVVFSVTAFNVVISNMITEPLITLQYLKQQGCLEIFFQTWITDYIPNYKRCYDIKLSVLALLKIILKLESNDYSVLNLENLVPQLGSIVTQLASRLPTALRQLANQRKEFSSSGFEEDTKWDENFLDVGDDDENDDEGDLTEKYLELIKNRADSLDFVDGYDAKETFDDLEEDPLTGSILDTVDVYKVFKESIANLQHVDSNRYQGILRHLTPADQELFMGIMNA

[2] = biological target: T2, GST-tagged Sxm1 (S. cerevisiae) (UniProt Q04175); assay: as above
T2 sequence: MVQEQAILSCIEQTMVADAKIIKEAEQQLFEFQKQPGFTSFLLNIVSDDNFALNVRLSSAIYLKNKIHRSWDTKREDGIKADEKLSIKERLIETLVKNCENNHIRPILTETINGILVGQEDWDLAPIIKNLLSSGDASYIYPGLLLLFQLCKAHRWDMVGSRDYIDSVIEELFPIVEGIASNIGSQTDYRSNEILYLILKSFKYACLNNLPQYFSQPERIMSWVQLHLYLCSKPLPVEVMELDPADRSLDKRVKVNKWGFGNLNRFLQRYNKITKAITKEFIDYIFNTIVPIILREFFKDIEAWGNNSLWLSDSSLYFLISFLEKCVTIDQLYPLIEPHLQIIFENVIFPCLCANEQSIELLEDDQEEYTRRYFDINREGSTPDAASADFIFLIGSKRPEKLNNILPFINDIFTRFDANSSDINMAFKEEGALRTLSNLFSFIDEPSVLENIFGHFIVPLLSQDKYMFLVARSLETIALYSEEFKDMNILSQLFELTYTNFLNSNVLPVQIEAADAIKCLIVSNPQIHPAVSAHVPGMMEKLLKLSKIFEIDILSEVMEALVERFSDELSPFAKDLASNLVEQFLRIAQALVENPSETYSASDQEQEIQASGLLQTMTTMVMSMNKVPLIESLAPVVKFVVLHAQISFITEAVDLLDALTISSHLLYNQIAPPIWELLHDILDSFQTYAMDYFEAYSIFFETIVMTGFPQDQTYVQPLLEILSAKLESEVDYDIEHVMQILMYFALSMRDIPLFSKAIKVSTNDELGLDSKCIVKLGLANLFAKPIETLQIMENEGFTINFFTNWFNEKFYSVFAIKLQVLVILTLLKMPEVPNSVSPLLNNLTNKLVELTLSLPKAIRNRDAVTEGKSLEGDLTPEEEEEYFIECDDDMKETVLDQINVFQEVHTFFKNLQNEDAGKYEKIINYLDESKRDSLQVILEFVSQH

binding [1]: no binding (tested: 4 µM Tsr2:eS26)
binding [2]: no binding (tested: 4 µM Tsr2:eS26)
Substance: Tsr2:eS26 complex (S. cerevisiae)
